Test results taken from paper PMC6872537.

Chains of the proteins cited; added tags and fusions are not shown.
UniProt O95251: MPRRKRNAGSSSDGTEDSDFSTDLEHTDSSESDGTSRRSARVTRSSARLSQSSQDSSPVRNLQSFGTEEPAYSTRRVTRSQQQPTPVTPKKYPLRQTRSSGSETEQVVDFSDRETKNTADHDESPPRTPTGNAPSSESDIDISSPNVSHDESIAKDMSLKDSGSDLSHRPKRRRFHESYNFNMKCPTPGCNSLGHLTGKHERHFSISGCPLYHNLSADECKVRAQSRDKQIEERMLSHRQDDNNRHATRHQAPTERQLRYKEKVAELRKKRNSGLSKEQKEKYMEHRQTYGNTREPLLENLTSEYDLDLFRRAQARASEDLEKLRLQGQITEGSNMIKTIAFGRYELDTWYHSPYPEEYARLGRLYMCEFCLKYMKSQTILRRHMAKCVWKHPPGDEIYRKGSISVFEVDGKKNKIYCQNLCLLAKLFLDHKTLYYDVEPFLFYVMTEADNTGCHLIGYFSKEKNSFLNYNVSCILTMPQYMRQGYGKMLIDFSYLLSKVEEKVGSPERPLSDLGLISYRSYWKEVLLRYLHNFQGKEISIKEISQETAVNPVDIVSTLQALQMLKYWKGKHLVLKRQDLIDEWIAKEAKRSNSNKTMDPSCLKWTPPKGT
UniProt Q04206: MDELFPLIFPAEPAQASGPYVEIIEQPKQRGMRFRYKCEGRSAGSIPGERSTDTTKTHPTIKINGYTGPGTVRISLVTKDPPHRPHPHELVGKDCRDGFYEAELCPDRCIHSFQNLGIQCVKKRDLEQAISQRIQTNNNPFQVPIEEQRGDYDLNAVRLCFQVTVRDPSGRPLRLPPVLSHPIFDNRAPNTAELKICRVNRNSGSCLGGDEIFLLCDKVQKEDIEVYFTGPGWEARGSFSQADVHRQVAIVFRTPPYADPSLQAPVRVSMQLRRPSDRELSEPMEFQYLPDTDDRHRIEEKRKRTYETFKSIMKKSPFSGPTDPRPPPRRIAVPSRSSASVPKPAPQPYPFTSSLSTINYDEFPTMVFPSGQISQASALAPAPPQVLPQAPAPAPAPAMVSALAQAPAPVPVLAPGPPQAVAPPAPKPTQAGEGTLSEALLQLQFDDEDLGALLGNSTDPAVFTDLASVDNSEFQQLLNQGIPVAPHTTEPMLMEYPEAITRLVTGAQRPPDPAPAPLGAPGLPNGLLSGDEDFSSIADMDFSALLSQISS
UniProt Q14978: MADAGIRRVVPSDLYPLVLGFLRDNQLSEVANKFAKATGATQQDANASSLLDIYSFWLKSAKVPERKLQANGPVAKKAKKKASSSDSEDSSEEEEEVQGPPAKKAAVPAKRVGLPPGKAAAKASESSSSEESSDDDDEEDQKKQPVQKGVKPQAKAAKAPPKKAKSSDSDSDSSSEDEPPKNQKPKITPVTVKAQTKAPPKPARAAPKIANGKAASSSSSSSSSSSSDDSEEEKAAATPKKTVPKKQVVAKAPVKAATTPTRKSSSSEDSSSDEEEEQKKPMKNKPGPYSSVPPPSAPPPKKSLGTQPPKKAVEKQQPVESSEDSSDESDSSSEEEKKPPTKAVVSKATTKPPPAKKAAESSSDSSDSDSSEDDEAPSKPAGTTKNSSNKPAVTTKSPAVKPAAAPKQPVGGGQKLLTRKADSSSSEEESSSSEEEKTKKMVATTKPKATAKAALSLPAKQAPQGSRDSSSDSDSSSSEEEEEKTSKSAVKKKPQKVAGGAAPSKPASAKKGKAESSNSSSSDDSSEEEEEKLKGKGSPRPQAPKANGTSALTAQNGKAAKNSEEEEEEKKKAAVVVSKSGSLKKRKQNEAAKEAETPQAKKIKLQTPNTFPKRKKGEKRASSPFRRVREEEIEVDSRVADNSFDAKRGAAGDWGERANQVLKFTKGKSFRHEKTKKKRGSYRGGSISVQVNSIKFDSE

Target: GST-ING4 (glutathione S-transferase-fused Inhibitor of growth 4) (human) (UniProt Q9UNL4)
Assay: affinity purification with mass spectrometry; GST-ING4 (5 ug) mixed with 3 ml HeLa S3 lysate (4 mg/ml; Lysis Buffer A: 20 mM Hepes-KOH pH 7.4, 100 mM KCl, 20 mM NaCl, 1% NP-40, 1 mM DTT) overnight at 4 C, captured on Glutathione Sepharose 4B, washed three times, eluted with SDS sample buffer; silver-stained SDS-PAGE, nanoLC/MS/MS; only the target purified

| Molecule | binding |
| --- | --- |
| histone acetyltrasferase HBO1, endogenous in HeLa S3 (from UniProt O95251 1-611) | binds |
| nuclear factor NF-kappa-B p65 subunit, endogenous in HeLa S3 (from UniProt Q04206 1-551) | binds |
| nucleolar GTP-binding protein 2 (GNL2), endogenous in HeLa S3 (from UniProt Q13823 1-731) | binds |
| nucleolar and coiled-body phosphoprotein 1 (NOLC1), endogenous in HeLa S3 (from UniProt Q14978 1-699) | binds |
| p53, endogenous in HeLa S3 (from UniProt P04637 1-393) | binds |
| G Protein nucleolar 3 (GNL3), endogenous in HeLa S3 (protein, UniProt Q9BVP2 1-549) MKRPKLKKASKRMTCHKRYKIQKKVREHHRKLRKEAKKRGHKKPRKDPGVPNSAPFKEALLREAELRKQRLEELKQQQKLDRQKELEKKRKLETNPDIKPSNVEPMEKEFGLCKTENKAKSGKQNSKKLYCQELKKVIEASDVVLEVLDARDPLGCRCPQVEEAIVQSGQKKLVLILNKSDLVPKENLESWLNYLKKELPTVVFRASTKPKDKGKITKRVKAKKNAAPFRSEVCFGKEGLWKLLGGFQETCSKAIRVGVIGFPNVGKSSIINSLKQEQMCNVGVSMGLTRSMQVVPLDKQITIIDSPSFIVSPLNSSSALALRSPASIEVVKPMEAASAILSQADARQVVLKYTVPGYRNSLEFFTVLAQRRGMHQKGGIPNVEGAAKLLWSEWTGASLAYYCHPPTSWTPPPYFNESIVVDMKSGFNLEELEKNNAQSIRAIKGPHLANSILFQSSGLTNGIIEEKDIHEELPKRKERKQEEREDDKDSDQETVDEEVDENSSGMFAAEETGEALSEETTAGEQSTRSFILDKIIEEDDAYDFSTDYV | binds |

Results are given in words; binding and its absence hold for the method and conditions named. In cells and extracts the contact can be indirect. Here binding means that the protein was enriched with, or labelled near, the bait; the list need not be complete.
